Assay results from patent US8283322B2, “Formulations for nonsurgical exogenous crosslink therapy” (Orthopeutics, LP, priority 2008, dated 2012).

Tested on: calf lumbar spinal discs
Experiment: Diffusion study in calf lumbar spinal discs (area of diffusion zone, ImageJ)
Protocol: FIG. 12—Diffusion kinetics of genipin and BSA in calf lumbar spinal discs. 200 μl of 0.33% (w/v) or 1 mg/ml BSA-Texas Red were injected at a depth of 1 cm into the discs of individual calf lumbar motion segments and incubated for 1, 3 or 6 hours at 37° C. Samples were transected and the area of each diffusion zone at each time point and for each reagent was determined from photographs using ImageJ software.
FIG. 13—Effect of surfactants on the diffusion of GP and BSA-TR. 200 μl of 0.33% (w/v) or 1 mg/ml BSA-Texas Red formulated in PBS in the absence of presence of 0.1% (w/v) of either Tween-20 or SDS were injected at a depth of 1 cm into the discs of individual calf lumbar motion segments. Segments were incubated for 1 hr at 37° C. and the samples were then transected and the area of each diffusion zone determined from photographs using ImageJ software.
In order to observe the diffusion kinetics of these markers, GP (0.33% (w/v)) or BSA-TR (1 mg/ml) were dissolved in PBS and 200 μl injected at a depth of 1 cm into the discs of individual calf lumbar motion segments and incubated at 37° C. for 1, 3 or 6 hrs in sealed ZipLoc bags containing a sheet of paper towel moistened with H2O. In initial experiments discs were injected at three sites, the dorsal and left and right lateral regions. In some cases, however, diffusion zones merged and were not possible to quantify and in subsequent experiments injections were limited to the left and right lateral regions. Following the incubations, each segment was transected with a scalpel and frozen overnight at −20° C. (to allow the color of the genipin to develop). The samples were then thawed, photographed and the area of each diffusion zone calculated using ImageJ software.
In order to potentially maximize the diffusion of these reagents, the inventors next sought to determine whether this could be achieved through the addition of detergents. The inventors chose one mild, non-ionic surfactant (Tween-20) and one harsher anionic surfactant (SDS) for this purpose. Both 0.33% (w/v) GP and 1 mg/ml BSA-TR were formulated in either PBS alone or PBS containing 0.1% (w/v) of either SDS or Tween-20. These solutions were injected as described above and incubated at 37° C. for 1 hr. […] In contrast, SDS appeared to enhance the diffusion of GP through intervertebral disc tissue by approximately 30% under these conditions.

Molecule | area of diffusion zone, Mean (3 hr at 37° C., in PBS) | area of diffusion zone, Mean (6 hr at 37° C., in PBS) | effect of surfactants (SDS, Tween-20) on mobility through the tissue (0.1% (w/v) surfactant in PBS, 1 hr, 37° C.) | diffusion kinetics (1, 3 or 6 hrs at 37° C. in PBS) | area of diffusion zone, single injection site (6 hr at 37° C., in PBS, listed as BSA)
COC(=O)C1=CO[C@@H](O)[C@@H]2C(CO)=CC[C@H]12 [Genipin, genipin] | 241.3 mm^2 | 330.5 mm^2 |  |  | 
BSA-TR: bovine serum albumin (BSA) conjugated to the fluorophore Texas Red (TR); marker for large molecular weight crosslinker [reference compound] | 37.3 mm^2 | 31.1 mm^2 | Neither surfactant appeared to have any effect | did not appear to diffuse | 23.9 H mm^2 and 32.3 L mm^2 and 37.2 R mm^2

“And” between values parts separate entries of the source, which are not always exact repeats. Equal entries are not always repeated.
